PubChem BioAssay AID1224830 | NIAID, 2016

Test: 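Regulators of TLR4 signalling towards TNF-alpha in macrophage-like cells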 (primary screen)
Cell system: human THP-1 monocytic leukaemia cells, TNF dual-luciferase reporter clone, PMA-differentiated to macrophage-like cells
Reagents: siRNA pool against human genes, 50 nM
Duration: LPS for 4 h, given about 3 days after siRNA transfection
Treatment: bacterial LPS (TLR4 ligand), 10 ng/ml
Read-out: 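TNF firefly reporter luminescence divided by renilla, normalised to the plate median, then turned into a robust z-score for each replicate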
Scale: TNF reporter robust z-score: higher = stronger TNF reporter response to LPS
Rule for the call: 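a well is active when its z-score exceeds 2.8 or falls below -1.5; control wells carry no call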
Shown is one part, drawn at random, of about 18,000 reagents tested. About 2,900 of them (16%) were called active. 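Calls are made per well; low scores hint the gene aids the LPS response, high scores that it dampens it.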 Unmarked entries are inactive. Repeated entries: four replicate wells of each siRNA pool.

target gene | TNF reporter robust z-score
STAG1 (STAG1 cohesin complex component) | -0.51
STAG1 (STAG1 cohesin complex component) | -0.14
STAG1 (STAG1 cohesin complex component) | -0.31
STAG1 (STAG1 cohesin complex component) | 0.12
RBP2 (retinol binding protein 2) | 0.28
RBP2 (retinol binding protein 2) | 5.65 (active)
RBP2 (retinol binding protein 2) | 1.32
RBP2 (retinol binding protein 2) | 0.02
TMEM70 (transmembrane protein 70) | -0.08
TMEM70 (transmembrane protein 70) | 0.91
TMEM70 (transmembrane protein 70) | 0.74
TMEM70 (transmembrane protein 70) | 0.53
EML5 (EMAP like 5) | -0.6
EML5 (EMAP like 5) | 0.67
EML5 (EMAP like 5) | 0.4
EML5 (EMAP like 5) | 0.53
PCNX1 (pecanex 1) | -1.01
PCNX1 (pecanex 1) | -0.41
PCNX1 (pecanex 1) | -0.3
PCNX1 (pecanex 1) | -0.31
EGFR (epidermal growth factor receptor) | -1.46
EGFR (epidermal growth factor receptor) | -0.94
EGFR (epidermal growth factor receptor) | -1.44
EGFR (epidermal growth factor receptor) | -1.43

Part of the list above, set out differently:
| target gene | TNF reporter robust z-score |
| --- | --- |
| EML5 (EMAP like 5) | 0.53 |
| PCNX1 (pecanex 1) | -1.01 |
| PCNX1 (pecanex 1) | -0.41 |
| PCNX1 (pecanex 1) | -0.3 |
| PCNX1 (pecanex 1) | -0.31 |
| EGFR (epidermal growth factor receptor) | -1.46 |
| EGFR (epidermal growth factor receptor) | -0.94 |
| EGFR (epidermal growth factor receptor) | -1.44 |

Further results follow.
target gene | TNF reporter robust z-score
TMEM237 (transmembrane protein 237) | -0.65
TMEM237 (transmembrane protein 237) | 0.14
TMEM237 (transmembrane protein 237) | -0.07
TMEM237 (transmembrane protein 237) | 1.09
PALS1 (protein associated with LIN7 1, MAGUK p55 family member) | 20.6 (active)
PALS1 (protein associated with LIN7 1, MAGUK p55 family member) | -0.31
PALS1 (protein associated with LIN7 1, MAGUK p55 family member) | -1.26
PALS1 (protein associated with LIN7 1, MAGUK p55 family member) | -0.46
TSLIG1 (tRNA splicing ligase complex subunit 1) | -0.16
TSLIG1 (tRNA splicing ligase complex subunit 1) | 0.86
TSLIG1 (tRNA splicing ligase complex subunit 1) | -0.24
TSLIG1 (tRNA splicing ligase complex subunit 1) | 0.18
LIG1 (DNA ligase 1) | -1.22
LIG1 (DNA ligase 1) | -0.67
LIG1 (DNA ligase 1) | -1.53 (active)
LIG1 (DNA ligase 1) | -1.01
RYBP (RING1 and YY1 binding protein) | 1.56
RYBP (RING1 and YY1 binding protein) | 2.52
RYBP (RING1 and YY1 binding protein) | 0.67
RYBP (RING1 and YY1 binding protein) | 0.63
CRYBG1 (crystallin beta-gamma domain containing 1) | -0.76
CRYBG1 (crystallin beta-gamma domain containing 1) | -0.71
CRYBG1 (crystallin beta-gamma domain containing 1) | -0.86
CRYBG1 (crystallin beta-gamma domain containing 1) | -0.69
